# Literature values in paper PMC11728000, “Antitumor Activity and Multi-Target Mechanism of Phenolic Schiff Bases Bearing Methanesulfonamide Fragments: Cell Cycle Analysis and a Molecular Modeling Study” (International Journal of Molecular Sciences, 2024).
# Assays:
# Parameters in all cases: method as in https://dtp.cancer.gov/dtpstandard/dwindex/index.jsp
# Conditions in all cases: ref https://dtp.cancer.gov/dtpstandard/dwindex/index.jsp; cited from earlier work
# SW-620 = test system: SW-620
# EKVX = test system: EKVX
# PC-3 = test system: PC-3
# SNB-75 = test system: SNB-75
# MCF-7 = test system: MCF-7
smiles,measurement,setting,value
"COc1cc2ncnc(Nc3ccc(F)c(Cl)c3)c2cc1OCCCN1CCOCC1 [Gefitinib, gefitinib]",GI50,SW-620,5.01 µM
same,GI50,EKVX,0.0501 µM
same,GI50,PC-3,5.01 µM
same,GI50,SNB-75,5.01 µM
same,GI50,MCF-7,5.01 µM
